{"source": "the supplement of paper PMC10338343", "note": "± gives the standard deviation. The list shows a part of the results, in another mix than the full data. Many of these values have a large error."}
{"test_system": "EfPiwi piRISC loaded with piRNA #1 (26 nt)", "test": "pre-steady-state target cleavage rate (min^-1); guide: piRNA #1 5'p-UGAGGUAGUAGGUUGUAUAGUAUCCA; MIWI and MILI are mouse PIWI proteins and EfPiwi is from a freshwater sponge; tags in brackets are library labels; higher = faster piRNA-guided slicing of the target", "settings": "auxiliary factor: 500 nM Ephydatia muelleri Gtsf1", "method_in_brief": "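Cleave-'n-Seq: 1 nM active affinity-purified piRISC with one synthetic guide and 0.1 nM transcribed, DNA-blocked target RNA library were mixed, with or without 500 nM GTSF1 partner protein, in HEPES–potassium acetate buffer at 33 °C for 0–8 or 0–960 min. Uncleaved targets were sequenced and normalised to depth and to weakly complementary targets, three trials were pooled, and k3 was capped at 0.0001 min^-1. The pre-steady-state cleavage rate was fitted […].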"}
{"sequence": "GGAGACCUAUGUAUACAAGCUACUAGCUCA", "pre-steady-state target cleavage rate": "0.0012 ± 0.0054"}
{"sequence": "GGAGACCUAUGAUAUCAACCUACAACCUCA", "pre-steady-state target cleavage rate": "0.000767 ± 0.01"}
{"sequence": "GGAGUGGAUACUAUACAACCUACUACCAUCA", "pre-steady-state target cleavage rate": "0.00588 ± 0.0026"}
{"sequence": "GGAGACCUAACUUUACAACCUAGUACCUCA", "pre-steady-state target cleavage rate": "0.00417 ± 0.0038"}
{"sequence": "GGAGACCUUAGCUAUACAACCUACUACCUCA", "pre-steady-state target cleavage rate": "0.0684 ± 0.027"}
{"sequence": "GGAGUGGAUACUAUACAUCCAACUACCUCA", "pre-steady-state target cleavage rate": "0.00457 ± 0.0019"}
{"sequence": "GGAGAGGAUACUAUCCAACCUACUACCUCA", "pre-steady-state target cleavage rate": "0.00889 ± 0.004"}
{"sequence": "GGAGACCUUACUAUACAACCUACUUGGAGA [g7:g22:cont:t1A]", "pre-steady-state target cleavage rate": "0.00347 ± 0.0041"}
{"sequence": "GGAGACCAUUCUAUAGAACCUACUACCUCA", "pre-steady-state target cleavage rate": "0.0023 ± 0.0042"}
{"sequence": "GGAGACCUUACUAUACAACCUAGUACCACA", "pre-steady-state target cleavage rate": "0.00255 ± 0.0023"}
{"sequence": "GGAGACCUAACUAAACAACCUACUACCUCA", "pre-steady-state target cleavage rate": "0.00631 ± 0.0031"}
{"sequence": "GGAGAGGCUACUAUACAACCUACUACCUCA", "pre-steady-state target cleavage rate": "0.0629 ± 0.022"}
{"sequence": "GGAGACCAUACUAUACAACCAUACUACCUCA", "pre-steady-state target cleavage rate": "0.00431 ± 0.003"}
{"sequence": "GGAGACCUAUGUAUACAACCUACUACCGUCA", "pre-steady-state target cleavage rate": "0.00101 ± 0.0072"}
{"sequence": "GGAGACCUAACUAUACAACCUACUACCGCA", "pre-steady-state target cleavage rate": "0.00244 ± 0.0036"}
{"sequence": "GGAGUGGAUUCUAUACAACCUACUACCACA", "pre-steady-state target cleavage rate": "0.00158 ± 0.0025"}
{"sequence": "GGAGUGGAUACUACACAACCUACUACCUCA", "pre-steady-state target cleavage rate": "0.082 ± 0.029"}
{"sequence": "GGAGACCUAUGUAUACAACCUACUACCUGA", "pre-steady-state target cleavage rate": "0.00194 ± 0.0039"}
{"sequence": "GGAGACCUAUGUAUACACCCUACUACCUCA", "pre-steady-state target cleavage rate": "0.00271 ± 0.005"}
{"sequence": "GGAGUGGAUACCAUACAACCUACUACCUCA", "pre-steady-state target cleavage rate": "0.157 ± 0.051"}
{"sequence": "GGAGACCAUACUAUACUUGCUACUACCUCA", "pre-steady-state target cleavage rate": "0.00107 ± 0.0083"}
{"sequence": "GGAGACCAUACUAUACAACCUACUCCCUCA", "pre-steady-state target cleavage rate": "0.00669 ± 0.0039"}
{"sequence": "GGAGACCUAUGAUAUGUACCUACUACCUUA", "pre-steady-state target cleavage rate": "0.000197 ± 0.014"}
{"sequence": "GGAGACCUUACUAUACAACCUACUACGACA", "pre-steady-state target cleavage rate": "0.00191 ± 0.0023"}
{"sequence": "GGAGACCUAUGAUAUCAACCUAGUAGCUCA", "pre-steady-state target cleavage rate": "0.000563 ± 0.011"}
{"sequence": "GGAGACCUUAGUAUACAACGUACUACCUCA", "pre-steady-state target cleavage rate": "0.000604 ± 0.0044"}
{"sequence": "GGAGAGGAUACUAUACAACCUACUACCAUCA", "pre-steady-state target cleavage rate": "0.00705 ± 0.0029"}
{"sequence": "GGAGACGAUACUAUACAACCUACUACCGCA", "pre-steady-state target cleavage rate": "0.00926 ± 0.0033"}
{"sequence": "GGAGACCUAUCUAUACUACGUACUACCUCA", "pre-steady-state target cleavage rate": "0.00156 ± 0.0038"}
{"sequence": "GGAGACCUAUGUAUACAACCCACUACCUCA", "pre-steady-state target cleavage rate": "0.000887 ± 0.0073"}
{"sequence": "GGAGACCAUACUAUACAACCUACUCCUCA", "pre-steady-state target cleavage rate": "0.0041 ± 0.0047"}
{"sequence": "GGAGACCAUACUAUAGAACGUACUACCUCA", "pre-steady-state target cleavage rate": "0.00175 ± 0.0035"}
{"sequence": "GGAGACCAUACAAUACAACCUUCUACCUCA", "pre-steady-state target cleavage rate": "0.00301 ± 0.0031"}
{"sequence": "GGAGACCUAUCUAUAACAACCUACUACCUCA", "pre-steady-state target cleavage rate": "0.00453 ± 0.0037"}
{"sequence": "GGAGACGAUACUAUACAACCUGCUACCUCA", "pre-steady-state target cleavage rate": "0.128 ± 0.046"}
{"sequence": "GGAGACCUAUCUAUACAACAUACUACCUCA", "pre-steady-state target cleavage rate": "0.00529 ± 0.0038"}
{"sequence": "GGAGACCUAUCUAUACAACGUUCUACCUCA", "pre-steady-state target cleavage rate": "0.00118 ± 0.0051"}
{"sequence": "GGAGACCUAUGAUAUGUACCUACUAUCUCA", "pre-steady-state target cleavage rate": "0.000466 ± 0.011"}
{"sequence": "GGAGACCUAUGUAUACAACCUACUAUCUCA", "pre-steady-state target cleavage rate": "0.00205 ± 0.0047"}
{"sequence": "GGAGACCUAUCUAUACAUCCUACUACCUGA", "pre-steady-state target cleavage rate": "0.00459 ± 0.0036"}
